PubChem BioAssay AID2551 (National Center for Advancing Translational Sciences (NCATS), 2010)
Several values for one entry are separate records, joined by “and”; a condition that tells them apart may be missing. Equal values may be shown once. About 17,000 (5.5%) of roughly 310,000 compounds were called active. Inconclusive means that the source gave no clear call. Such entries were picked first, then a sample of the others. The call rests on the fitted dose curve; in most records, active means well fitted inhibition curve with a large enough effect; inconclusive means small, poorly fitted or top-dose-only effect, or effect the other way; inactive means no such curve, though single readings can be large or run the other way. Where the call is inconclusive, the potency comes from a doubtful curve fit. Where a structure was tested more than once in an assay, its records may differ in their call.

The chains behind the UniProt entries cited, without tags or fusion partners. Where a name states a change or a piece, a line headed by the entry shows the natural chain unless it says otherwise.
UniProt P51450: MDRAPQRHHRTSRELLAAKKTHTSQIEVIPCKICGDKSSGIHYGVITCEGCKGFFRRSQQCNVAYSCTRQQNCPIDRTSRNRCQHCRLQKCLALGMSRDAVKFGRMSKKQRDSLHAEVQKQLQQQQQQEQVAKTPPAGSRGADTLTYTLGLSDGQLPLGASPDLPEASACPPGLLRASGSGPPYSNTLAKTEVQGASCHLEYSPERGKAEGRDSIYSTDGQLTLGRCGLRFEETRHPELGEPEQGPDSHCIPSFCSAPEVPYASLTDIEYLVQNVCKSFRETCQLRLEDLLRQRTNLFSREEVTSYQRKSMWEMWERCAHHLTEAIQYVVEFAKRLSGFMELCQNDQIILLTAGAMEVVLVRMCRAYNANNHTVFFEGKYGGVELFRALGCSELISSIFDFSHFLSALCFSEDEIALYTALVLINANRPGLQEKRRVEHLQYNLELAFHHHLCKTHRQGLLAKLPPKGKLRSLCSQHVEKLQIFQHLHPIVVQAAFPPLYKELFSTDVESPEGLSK

Target: Nuclear receptor ROR-gamma (Mus musculus) (UniProt P51450)
Assay: qHTS for inhibitors of ROR gamma transcriptional activity; further: nearly all actives have a fitted effect of over 60% in size
Conditions: Drosophila S2 Gal4-RORgamma UAS-luciferase reporter, 20 h; activity change, negative = inhibition: at 53.6 µM (top of the series)
Method in brief: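 Schneider cells (Drosophila), stable Gal4 DBD–ROR gamma + UAS-luc; 1 hr cmpd preincubation; Cu2+ induction 700 uM final; 20 hr ambient; luminescence.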
On the % scale 0 is the no-effect control and ±100 the full control effect; potency means the concentration at half of the fitted maximal effect.

Compound | activity change, negative = inhibition | Potency
Cc1[nH]c2ccccc2c1[C@H]1[C@@H](CC#N)C1(C)C | inactive: 18.5% | –
Cc1ccc(S(=O)(=O)N/N=C\c2cn(-c3ccccc3)nc2-c2ccccc2)cc1 | – | inconclusive: 35.5 µM [activator, single point]
Cc1ccc(NC(=O)c2sc3ncn(CC(=O)N4CCOCC4)c(=O)c3c2C)c(Br)c1 | – | inconclusive: 35.5 µM [inhibitor, single point]
Cc1cccc(C)c1OCc1nnc(NC(=O)CSc2ccc(Cl)cc2)s1 | inactive: -16.4% | –
O=C(Nc1nc2ccccc2s1)C1=NN(c2ccccc2)C(=O)CC1 | – | inconclusive: 20 µM [inhibitor, single point]
CC(C)Cc1nnc(NC(=O)c2ccc([N+](=O)[O-])cc2)s1 | inactive: 11.8% | –
COc1ccc(-c2nnc(N3CCCCC3)c3ccccc23)cc1 | inactive: -0.536% | –
Cn1c(=N)c(S(=O)(=O)c2ccc(F)cc2)cc2c(=O)n3ccccc3nc21 | inactive: 15.3% | –
O=C(Nc1cccc2cccnc12)c1ccc(Br)o1 | – | inconclusive: 35.5 µM [activator, single point]
COc1ccc(CCCc2n[nH]c(=S)o2)cc1 | – | active: 12.6 µM
O=S(=O)(c1ccccc1)c1nc(-c2ccco2)oc1N1CCCCC1 | – | inconclusive: 14.1 µM [activator, single point]
COC(=O)C1=C(C)NC(C)=C(C(=O)OC)C1c1ccc(C)o1 | inactive: -1.14% | –
Cc1cc(C)nc(N/N=C/c2cn[nH]c2-c2ccc(F)cc2)n1 | – | inconclusive: 7.94 µM [inhibitor, partial curve]
CC(=O)c1sc(=S)n(-c2ccc(Cl)cc2)c1C | inactive: 15.1% | –
COc1cccc(NC(=O)C2C3C=CC(C3)C2C(=O)O)c1 (configuration not stated) | – | inconclusive: 35.5 µM [inhibitor, single point]
COc1ccc(/C=C/C(=O)NC2CCCCCCC2)cc1S(=O)(=O)N1CCOCC1 | – | inconclusive: 6.31 µM [activator, partial curve]
Cc1ccc(/C=N/NC(=O)C2=NNC(c3ccccc3)(c3ccccc3)C2)c(O)c1 | – | active: 1.26 µM
Cc1c(O)c(CN2CCCC2)cc2c3c(c(=O)oc12)CCC3 | inactive: -15% | –
Cc1cc(C)n(-c2nc3ccccc3c(=O)n2OCC#N)n1 | – | active: 0.501 µM
c1ccc2[nH]c(NC3=NCCC3)nc2c1 | – | active: 2.82 µM
Cc1cnc(NC(=O)c2cccc(S(=O)(=O)N3CC(C)OC(C)C3)c2)s1 (configuration not stated) | inactive: 21.7% | –
CCN(CC)C(=O)c1cnn(-c2ccccc2)c1NC(=O)c1cccs1 | – | inconclusive: 11.2 µM [activator, partial curve, poor fit]
O=C1C(Cl)=C(N2CCCCCC2)C(=O)N1c1ccc(Br)cc1 | – | inconclusive: 6.31 µM [activator, partial curve]
COc1ccc(C2=CC(c3ccc(OC)c(OC)c3)NC(=S)N2)cc1 (configuration not stated) | – | inconclusive: 5.01 µM [inhibitor, partial curve]
CC(=O)c1ccc(NC(=O)c2cnn3ccccc23)cc1 | – | inconclusive: 12.6 µM [inhibitor, single point]
COC(=O)[C@@H](NC(=O)N(C1CCCCC1)C1CCCCC1)C(C)C | inactive: -4.67% | –

Compound | activity change, negative = inhibition | Potency
NS(=O)(=O)c1ccc(-c2ccc(/C=N/Nc3ccc(C(=O)O)cc3)o2)cc1 | – | active: 10 µM
COC(=O)c1c(C)n(-c2ccc(C)cc2)c2ccc(O)cc12 | – | inconclusive: 6.31 µM [inhibitor, single point]
COc1ccc(C(=O)/C=C/c2ccc(OC)c(COc3ccc(F)cc3)c2)cc1 | – | inconclusive: 12.6 µM [inhibitor, single point]
CN(C)CCNC(=O)COc1ccc(Cl)cc1Cl | inactive: -12.2% | –
Clc1ccccc1C(c1ccccc1)(c1ccccc1)n1ccnc1 | – | active: 12.6 µM and active: 6.31 µM
C/C(=N/OC(=O)C1CC1c1ccccc1)c1ccccc1 (configuration not stated) | inactive: 2.18% | –
CCSc1nsc(NC(=O)Nc2ccccc2F)n1 | – | inconclusive: 15.8 µM [activator, partial curve]
CC(=O)Nc1ccc(NC(=O)N(c2ccccc2)c2ccccc2)cc1 | inactive: -0.312% | –
O=C(NC(=S)Nc1cccc2c(O)cccc12)c1cccc(Br)c1 | – | active: 11.2 µM
COc1ccc(NS(=O)(=O)c2ccc(Cl)c(NC(=O)c3cccnc3Cl)c2)cc1 | – | inconclusive: 17.8 µM [activator, single point]
COc1ccc(-c2n[nH]c(=S)n2-c2ccc(Br)cc2)cc1OC | – | active: 20 µM
Cc1snc(SCC(=O)c2ccc(Cl)cc2)c1C#N | – | inconclusive: 8.91 µM [activator, partial curve]
Cc1nn(C)c(C)c1NC(=O)c1ccccc1NC(=O)Nc1ccccc1 | inactive: -29.4% | –
COc1ccc(S(=O)(=O)N2CCN=C2SCc2cccc(F)c2)cc1 | inactive: 4.24% | –
CC(Nc1ccc2c(c1)OCCO2)C(=O)N1CCc2ccccc21 (configuration not stated) | – | inconclusive: 10 µM [activator, single point]
O=C(NNC(=S)Nc1ccc(Cl)cc1Cl)c1ccc(N2CCOCC2)c([N+](=O)[O-])c1 | – | active: 11.2 µM
O=C(O)c1ccc(/C=N/Nc2ccc(C(F)(F)F)cn2)cc1 | – | inconclusive: 35.5 µM [inhibitor, single point]
Cc1ccccc1OCC(=O)NC(Cc1c[nH]c2ccccc12)C(=O)O (configuration not stated) | inactive: 13.5% | –
Cc1cc2ccccc2n2c(SCC(=O)N3CCc4ccccc4C3)nnc12 | – | inconclusive: 5.62 µM [activator, single point]
CC(=O)N1CC(C)Sc2ccc(S(=O)(=O)N3CCCCC3)cc21 (configuration not stated) | inactive: 6.66% | –
Cc1nnc(NC(=O)C2CCCO2)s1 (configuration not stated) | inactive: 2.41% | –
O=S(=O)(Nc1ncccn1)c1ccc(Cl)cc1 | inactive: -24.3% [at 1.91 µM] | –
O=C(c1ccc(F)cc1)C1CCN(C(=O)c2ccc(F)cc2)CC1 | – | inconclusive: 35.5 µM [activator, single point]
COc1ccccc1OCC(=O)Nc1nc(C)c(C)s1 | – | inconclusive: 35.5 µM [inhibitor, single point]
O=C(NC(=S)NCCOCc1ccc(Cl)cc1)c1cccnc1 | – | active: 11.2 µM
Cc1ccc(/C=C2/SC(=S)N(CCCC(=O)Nc3ccc(O)cc3)C2=O)cc1 | – | active: 0.398 µM

Structural class: those above with a nitro group on carbon (2)
Compound | activity change, negative = inhibition | Potency
CC(C)Cc1nnc(NC(=O)c2ccc([N+](=O)[O-])cc2)s1 | inactive: 11.8% | –
O=C(NNC(=S)Nc1ccc(Cl)cc1Cl)c1ccc(N2CCOCC2)c([N+](=O)[O-])c1 | – | active: 11.2 µM
